Test results from the supplement of paper PMC9226226.
Several values for one entry are separate records, joined by “and”; a condition that tells them apart may be missing. Identical values can stand only once. ± gives the standard deviation of the averaged measurements. The list shows a part of the results. Several reference drugs read as weak here; read low effects with care.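 Prematurely aging human mesenchymal stem cells without the Werner syndrome gene were monitored by automated live-cell imaging over three biological repeats. The top twenty drugs for increasing growth versus vehicle moved forward; no fixed cutoff was specified.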

Tested on: Werner syndrome hMSCs (WRN-/-)
Test: relative cell density (fold change vs vehicle control); higher = more proliferation (geroprotective)
Conditions: concentration (umol/L): 1, 6 days

| Structure (SMILES) | relative cell density (vehicle: DMSO) | relative cell density (vehicle: Water) |
| --- | --- | --- |
| CC1(C)S[C@@H]2[C@H](NC(=O)[C@H](C(=O)O)c3ccsc3)C(=O)N2[C@H]1C(=O)O | 0.928 |  |
| CN[C@H]1C(=O)N[C@@H]2Cc3ccc(cc3)Oc3cc4cc(c3O[C@@H]3O[C@H](C(=O)O)[C@@H](O)[C@H](O)[C@H]3NC(=O)CCCCCCCCC(C)C)Oc3ccc(cc3Cl)[C@@H](O)[C@@H]3NC(=O)[C@H](NC(=O)[C@@H]4NC(=O)[C@@H](NC2=O)c2cc(cc(O)c2Cl)Oc2cc1ccc2O)c1ccc(O)c(c1)-c1c(O[C@H]2O[C@H](CO)[C@@H](O)[C@H](O)[C@@H]2O)cc(O)cc1[C@@H](C(=O)NCCCN(C)C)NC3=O | 1.33 |  |
| CCOC(=O)n1ccn(C)c1=S | 0.889 |  |
| CC1(O)CCC(C(C)(C)O)CC1 (stereo unspecified) | 1.28 |  |
| CC(C)OC(=O)CCC/C=C\C[C@@H]1[C@@H](/C=C/[C@@H](O)COc2cccc(C(F)(F)F)c2)[C@H](O)C[C@@H]1O | 1.04 |  |
| O=C1CN(/N=C/c2ccc(-c3ccc([N+](=O)[O-])cc3)o2)C(=O)N1 | 0.774 |  |
| CC1(C)O[C@@H]2C[C@H]3[C@@H]4CCC5=CC(=O)C=C[C@]5(C)[C@H]4[C@@H](O)C[C@]3(C)[C@]2(C(=O)CO)O1 | 1.22 |  |
| O=C(O)c1ccc2c(c1)nc(Nc1cccc(Cl)c1)c1ccncc12 | 1.01 |  |
| CCNC(=O)CCC/C=C\C[C@@H]1[C@@H](/C=C/[C@@H](O)CCc2ccccc2)[C@H](O)C[C@@H]1O | 1 |  |
| COC(=O)C1=C(C)NC(C)=C(C(=O)OC2CCCN(Cc3ccccc3)C2)C1c1cccc([N+](=O)[O-])c1 (stereo unspecified) | 1.24 |  |
| NC[C@H]1O[C@H](O[C@H]2[C@H](O)[C@@H](O[C@H]3O[C@H](CO)[C@@H](O)[C@H](N)[C@H]3O)[C@H](N)C[C@@H]2N)[C@H](O)[C@@H](O)[C@@H]1O |  | 0.641 |
| C[C@H](Oc1ccc(S(C)(=O)=O)cc1C(=O)N1CCN(c2ncc(C(F)(F)F)cc2F)CC1)C(F)(F)F | 0.834 |  |
| O=C(CCCCCCC(=O)Nc1ccccc1)NO | 0.325 |  |
| Nc1c2c(nc3ccccc13)CCCC2 | 1.04 |  |
| CCCCC(CC)COC(=O)C(C#N)=C(c1ccccc1)c1ccccc1 (stereo unspecified) | 0.969 |  |
| O=c1sn(-c2cccc3ccccc23)c(=O)n1Cc1ccccc1 | 1.01 |  |
| COc1cc2/c(=N/c3ccc(Br)cc3F)nc[nH]c2cc1OCC1CCN(C)CC1 |  | 0.185 |
| CCN(CC)C(=S)SSC(=S)N(CC)CC | 0.211 |  |
| CCOc1cc(CC(=O)N[C@@H](CC(C)C)c2ccccc2N2CCCCC2)ccc1C(=O)O | 1.29 |  |
| CCOC(=O)C1=C(C)NC(C)=C(C(=O)OCC)C1c1ccccc1/C=C/C(=O)OC(C)(C)C | 1.35 |  |
| CCc1ccc(Cc2ccc3c(c2)[C@]2(OC3)O[C@H](CO)[C@@H](O)[C@H](O)[C@H]2O)cc1 | 0.896 |  |

| Structure (SMILES) | relative cell density (vehicle: DMSO) | relative cell density (vehicle: Water) |
| --- | --- | --- |
| C#C[C@]1(O)CC[C@H]2[C@@H]3CCc4cc(O)ccc4[C@H]3CC[C@@]21C | 0.998 |  |
| CN[C@@H]1[C@@H](O)[C@@H](O[C@@H]2[C@@H](O)[C@H](O[C@H]3O[C@H](CN)[C@@H](O)[C@H](O)[C@H]3O)[C@@H](N)C[C@H]2NC(=O)[C@@H](O)CN)OC[C@]1(C)O |  | 1.46 |
| CS(=O)(=O)N1CCN(Cc2cc3nc(-c4cccc5[nH]ncc45)nc(N4CCOCC4)c3s2)CC1 | 0.631 |  |
| CC(C)NCC(O)c1ccc(O)c(O)c1 (stereo unspecified) | 1.14 |  |
| COc1ccc2[nH]c([S@@+]([O-])Cc3ncc(C)c(OC)c3C)nc2c1 | 0.974 and 1.2 |  |
| Nc1nc2c(ncn2COCCO)c(=O)[nH]1 | 1 |  |
| COc1ccc(C(=O)CC(=O)c2ccc(C(C)(C)C)cc2)cc1 | 1.21 |  |
| COc1ncnc(NS(=O)(=O)c2ccc(N)cc2)c1OC | 1.18 |  |
| CC(=O)OCC(=O)[C@@]1(O)[C@H](C)C[C@H]2[C@@H]3CCC4=CC(=O)C=C[C@]4(C)[C@@]3(F)[C@@H](O)C[C@@]21C | 1.09 |  |
| COc1ccc(C(=O)c2ccccc2)c(O)c1 | 1.18 |  |
| COc1c(N2C[C@@H]3CCCN[C@@H]3C2)c(F)cc2c(=O)c(C(=O)O)cn(C3CC3)c12 | 1.34 |  |
| COc1cc(C(C)=O)ccc1OCCCN1CCC(c2noc3cc(F)ccc23)CC1 | 1.45 |  |
| CCCC1O[C@@H]2C[C@H]3[C@@H]4CCC5=CC(=O)C=C[C@]5(C)[C@H]4[C@@H](O)C[C@]3(C)[C@]2(C(=O)CO)O1 (stereo partly specified) | 1.09 |  |
| CC(C(=O)O)c1cccc(C(=O)c2ccccc2)c1 (stereo unspecified) | 0.933 |  |
| COC(=O)N[C@H](C(=O)N1CCC[C@H]1c1ncc(-c2ccc(-c3ccc(-c4cnc([C@@H]5CCCN5C(=O)[C@@H](NC(=O)OC)C(C)C)[nH]4)cc3)cc2)[nH]1)C(C)C | 1.07 |  |
| Cc1cc(C)c2c(c1)[C@@H](N(Cc1cc(C(F)(F)F)cc(C(F)(F)F)c1)c1nnn(C)n1)CCCN2C[C@H]1CC[C@H](C(=O)O)CC1 | 1.47 |  |
| O=NN(CCCl)C(=O)NCCCl | 0.975 |  |
| CCOC(=O)c1ncn2c1CN(C)C(=O)c1cc(F)ccc1-2 | 1.08 |  |
| C[C@@H]1CN(c2c(F)c(N)c3c(=O)c(C(=O)O)cn(C4CC4)c3c2F)C[C@H](C)N1 | 1.19 |  |
| CCn1cc(C(=O)O)c(=O)c2cc(F)c(N3CCN(C)CC3)cc21 | 1.31 and 1.19 |  |
| OCc1ccccc1 | 1.07 |  |

| Structure (SMILES) | relative cell density (vehicle: DMSO) | relative cell density (vehicle: Water) |
| --- | --- | --- |
| CNC(=C[N+](=O)[O-])NCCSCc1csc(CN(C)C)n1 | 0.896 |  |
| CC(C)CN(C[C@@H](O)[C@H](Cc1ccccc1)NC(=O)O[C@H]1CCOC1)S(=O)(=O)c1ccc(N)cc1 | 1.06 |  |
| CCC1=C[C@@H]2CN(C1)Cc1c([nH]c3ccccc13)[C@@](C(=O)OC)(c1cc3c(cc1OC)N(C)[C@H]1[C@@](O)(C(=O)OC)[C@H](OC(C)=O)[C@]4(CC)C=CCN5CC[C@]31[C@@H]54)C2 | 1.04 |  |
| CS(=O)(=O)Nc1ccc([N+](=O)[O-])cc1Oc1ccccc1 | 0.816 |  |
| CCn1cc(C(=O)O)c(=O)c2cc(F)c(N3CCNC(C)C3)c(F)c21 (stereo unspecified) |  | 1.33 |
| CCOC(=O)CCC(=O)O[C@H]1[C@H](O[C@@H]2[C@@H](C)[C@H](O[C@H]3C[C@@](C)(OC)[C@@H](O)[C@H](C)O3)[C@@H](C)C(=O)O[C@H](CC)[C@@](C)(O)[C@H](O)[C@@H](C)C(=O)[C@H](C)C[C@@]2(C)O)O[C@H](C)C[C@@H]1N(C)C | 0.991 |  |
| C[C@]12C=CC(=O)C=C1CC[C@@H]1[C@@H]2C(=O)C[C@@]2(C)[C@H]1CC[C@]2(O)C(=O)CO | 1.04 |  |
| CC1(C)[C@@H](O[C@H]2O[C@H](C(=O)O)[C@@H](O)[C@H](O)[C@H]2O[C@@H]2O[C@H](C(=O)O)[C@@H](O)[C@H](O)[C@H]2O)CC[C@]2(C)[C@H]3C(=O)C=C4[C@@H]5C[C@@](C)(C(=O)O)CC[C@]5(C)CC[C@@]4(C)[C@]3(C)CC[C@@H]12 | 0.899 |  |
| CC(C)(O/N=C(\C(=O)N[C@@H]1C(=O)N2C(C(=O)[O-])=C(C[n+]3ccccc3)CS[C@H]12)c1csc(N)n1)C(=O)O |  | 0.996 ± 0.047 |
| CCc1c2c(nc3ccc(OC(=O)N4CCC(N5CCCCC5)CC4)cc13)-c1cc3c(c(=O)n1C2)COC(=O)[C@]3(O)CC | 0.611 |  |
| CNCCC=C1c2ccccc2CCc2ccccc21 | 1.13 |  |
| C[C@H]1[C@H](NC(=O)/C(=N\OC(C)(C)C(=O)O)c2csc(N)n2)C(=O)N1S(=O)(=O)O | 1.53 |  |
| CCc1cc(C(N)=S)ccn1 | 0.942 |  |
| CC(=O)Nc1c(I)c(NC(C)=O)c(I)c(C(=O)O)c1I | 0.917 |  |
| NC(=O)c1ncn([C@@H]2O[C@H](CO)[C@@H](O)[C@H]2O)c1O |  | 0.72 |
| Cc1cn([C@@H]2C[C@@H](O)[C@H](CO)O2)c(=O)[nH]c1=O | 1.08 |  |
| CCOc1cc2ncc(C#N)c(Nc3ccc(OCc4ccccn4)c(Cl)c3)c2cc1NC(=O)/C=C/CN(C)C |  | 0.259 |
| O=C(N/N=C/c1ccc([N+](=O)[O-])o1)c1ccc(O)cc1 | 1.11 |  |
| CN(C)CCCOc1nn(Cc2ccccc2)c2ccccc12 | 1.2 |  |
| FC(F)(F)c1ccc(/C=C/c2nc(COc3ccc(CCCCn4ccnn4)cc3)co2)cc1 | 1.08 |  |
| CC(Oc1cc(-c2cnn(C3CCNCC3)c2)cnc1N)c1c(Cl)ccc(F)c1Cl (stereo unspecified) | 1.27 |  |

| Structure (SMILES) | relative cell density (vehicle: DMSO) | relative cell density (vehicle: Water) |
| --- | --- | --- |
| Nc1ccn(C[C@@H](CO)OCP(=O)(O)O)c(=O)n1 |  | 0.753 |
| CCCCC(=O)O[C@]1(C(=O)CO)[C@@H](C)C[C@H]2[C@@H]3CCC4=CC(=O)C=C[C@]4(C)[C@@]3(F)[C@@H](O)C[C@@]21C | 1.18 |  |
| CC(=O)OCC(=O)[C@@]1(O)CC[C@H]2[C@@H]3CCC4=CC(=O)CC[C@]4(C)[C@H]3C(=O)C[C@@]21C | 1.03 |  |
| OC[C@@H](O)[C@@H](O)[C@H](O)[C@@H](O)CO | 1.01 |  |
| NC(=O)[C@@H]1CC[C@@H]2CN1C(=O)N2OS(=O)(=O)O | 1.02 |  |
| Oc1ccc(O)cc1 | 1.39 |  |
| COc1cc2nc(N3CCN(C(=O)C4CCCO4)CC3)nc(N)c2cc1OC (stereo unspecified) | 1.23 and 1.18 |  |
| COc1ccc(C=Cc2cc(OC)c(OC)c(OC)c2)cc1OP(=O)(O)O |  | 0.32 |
| CC(C)OC(=O)CCC/C=C\C[C@@H]1[C@@H](CC[C@@H](O)CCc2ccccc2)[C@H](O)C[C@@H]1O |  | 0.793 |
| COc1cc(C)c(/C=C/C(C)=C/C=C/C(C)=C/C(=O)O)c(C)c1C | 0.799 |  |
| O=c1[nH]c(=O)n([C@H]2C[C@H](O)[C@@H](CO)O2)cc1F | 1.14 |  |
| CNNCc1ccc(C(=O)NC(C)C)cc1 |  | 0.99 |
| C[N+]1(C)CCC(=C(c2ccccc2)c2ccccc2)CC1 | 0.994 |  |
| CN(C)CCC=C1c2ccccc2C=Cc2ccccc21 | 1.04 |  |
| CN(C)CCc1c[nH]c2ccc(C[C@H]3COC(=O)N3)cc12 | 1.05 |  |
| NC(=O)c1ncn([C@@H]2O[C@H](CO)[C@@H](O)[C@H]2O)c1N | 1.01 |  |
| CC(c1cc2ccccc2s1)N(O)C(N)=O (stereo unspecified) | 1.12 |  |
| CN(C)CCCN1c2ccccc2CCc2ccc(Cl)cc21 | 1 |  |
